From publication PMC7083229
No constants are given. Whether binding was seen depends on the method and setting. In cells and extracts the contact can be indirect. These calls come from enrichment with a bait or labelling near it, and not all partners need be listed. For some assays here: A no says only that the protein was not detected with the bait. For some assays here: Tags and fused reporters may be left off the sequences shown.

The chains behind the UniProt entries cited, without tags or fusion partners.
UniProt Q6NZR5: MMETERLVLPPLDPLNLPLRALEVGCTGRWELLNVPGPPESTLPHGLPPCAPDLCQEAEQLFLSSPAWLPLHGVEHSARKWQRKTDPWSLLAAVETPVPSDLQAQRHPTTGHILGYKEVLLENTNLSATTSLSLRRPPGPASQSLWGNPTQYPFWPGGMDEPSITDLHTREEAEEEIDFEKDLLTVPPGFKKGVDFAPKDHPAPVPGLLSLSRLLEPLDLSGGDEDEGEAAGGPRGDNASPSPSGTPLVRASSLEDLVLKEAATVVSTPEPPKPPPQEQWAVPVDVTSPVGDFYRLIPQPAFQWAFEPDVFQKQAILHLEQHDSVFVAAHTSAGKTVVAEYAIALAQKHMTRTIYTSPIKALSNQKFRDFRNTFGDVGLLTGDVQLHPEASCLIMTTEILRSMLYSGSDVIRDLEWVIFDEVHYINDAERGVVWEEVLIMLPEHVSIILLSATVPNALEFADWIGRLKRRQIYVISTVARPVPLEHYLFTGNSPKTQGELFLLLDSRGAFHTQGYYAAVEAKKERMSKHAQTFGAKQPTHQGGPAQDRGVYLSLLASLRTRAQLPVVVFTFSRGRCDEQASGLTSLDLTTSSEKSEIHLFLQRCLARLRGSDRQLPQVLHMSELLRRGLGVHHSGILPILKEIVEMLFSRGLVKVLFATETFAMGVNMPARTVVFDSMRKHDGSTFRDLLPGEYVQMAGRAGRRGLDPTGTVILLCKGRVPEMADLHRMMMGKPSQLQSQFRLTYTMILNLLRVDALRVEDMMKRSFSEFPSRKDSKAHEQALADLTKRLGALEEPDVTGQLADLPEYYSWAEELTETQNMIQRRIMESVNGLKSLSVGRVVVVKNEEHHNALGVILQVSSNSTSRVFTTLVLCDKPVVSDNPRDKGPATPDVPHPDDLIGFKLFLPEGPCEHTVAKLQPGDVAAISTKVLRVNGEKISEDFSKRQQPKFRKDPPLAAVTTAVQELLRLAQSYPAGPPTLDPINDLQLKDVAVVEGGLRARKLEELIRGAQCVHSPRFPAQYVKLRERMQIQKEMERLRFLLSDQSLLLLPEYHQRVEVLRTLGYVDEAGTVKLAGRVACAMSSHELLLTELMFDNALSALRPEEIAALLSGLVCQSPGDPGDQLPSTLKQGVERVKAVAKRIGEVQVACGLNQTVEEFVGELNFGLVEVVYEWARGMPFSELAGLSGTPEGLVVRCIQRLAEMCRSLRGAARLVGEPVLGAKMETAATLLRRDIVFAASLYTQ
UniProt A2AKG8: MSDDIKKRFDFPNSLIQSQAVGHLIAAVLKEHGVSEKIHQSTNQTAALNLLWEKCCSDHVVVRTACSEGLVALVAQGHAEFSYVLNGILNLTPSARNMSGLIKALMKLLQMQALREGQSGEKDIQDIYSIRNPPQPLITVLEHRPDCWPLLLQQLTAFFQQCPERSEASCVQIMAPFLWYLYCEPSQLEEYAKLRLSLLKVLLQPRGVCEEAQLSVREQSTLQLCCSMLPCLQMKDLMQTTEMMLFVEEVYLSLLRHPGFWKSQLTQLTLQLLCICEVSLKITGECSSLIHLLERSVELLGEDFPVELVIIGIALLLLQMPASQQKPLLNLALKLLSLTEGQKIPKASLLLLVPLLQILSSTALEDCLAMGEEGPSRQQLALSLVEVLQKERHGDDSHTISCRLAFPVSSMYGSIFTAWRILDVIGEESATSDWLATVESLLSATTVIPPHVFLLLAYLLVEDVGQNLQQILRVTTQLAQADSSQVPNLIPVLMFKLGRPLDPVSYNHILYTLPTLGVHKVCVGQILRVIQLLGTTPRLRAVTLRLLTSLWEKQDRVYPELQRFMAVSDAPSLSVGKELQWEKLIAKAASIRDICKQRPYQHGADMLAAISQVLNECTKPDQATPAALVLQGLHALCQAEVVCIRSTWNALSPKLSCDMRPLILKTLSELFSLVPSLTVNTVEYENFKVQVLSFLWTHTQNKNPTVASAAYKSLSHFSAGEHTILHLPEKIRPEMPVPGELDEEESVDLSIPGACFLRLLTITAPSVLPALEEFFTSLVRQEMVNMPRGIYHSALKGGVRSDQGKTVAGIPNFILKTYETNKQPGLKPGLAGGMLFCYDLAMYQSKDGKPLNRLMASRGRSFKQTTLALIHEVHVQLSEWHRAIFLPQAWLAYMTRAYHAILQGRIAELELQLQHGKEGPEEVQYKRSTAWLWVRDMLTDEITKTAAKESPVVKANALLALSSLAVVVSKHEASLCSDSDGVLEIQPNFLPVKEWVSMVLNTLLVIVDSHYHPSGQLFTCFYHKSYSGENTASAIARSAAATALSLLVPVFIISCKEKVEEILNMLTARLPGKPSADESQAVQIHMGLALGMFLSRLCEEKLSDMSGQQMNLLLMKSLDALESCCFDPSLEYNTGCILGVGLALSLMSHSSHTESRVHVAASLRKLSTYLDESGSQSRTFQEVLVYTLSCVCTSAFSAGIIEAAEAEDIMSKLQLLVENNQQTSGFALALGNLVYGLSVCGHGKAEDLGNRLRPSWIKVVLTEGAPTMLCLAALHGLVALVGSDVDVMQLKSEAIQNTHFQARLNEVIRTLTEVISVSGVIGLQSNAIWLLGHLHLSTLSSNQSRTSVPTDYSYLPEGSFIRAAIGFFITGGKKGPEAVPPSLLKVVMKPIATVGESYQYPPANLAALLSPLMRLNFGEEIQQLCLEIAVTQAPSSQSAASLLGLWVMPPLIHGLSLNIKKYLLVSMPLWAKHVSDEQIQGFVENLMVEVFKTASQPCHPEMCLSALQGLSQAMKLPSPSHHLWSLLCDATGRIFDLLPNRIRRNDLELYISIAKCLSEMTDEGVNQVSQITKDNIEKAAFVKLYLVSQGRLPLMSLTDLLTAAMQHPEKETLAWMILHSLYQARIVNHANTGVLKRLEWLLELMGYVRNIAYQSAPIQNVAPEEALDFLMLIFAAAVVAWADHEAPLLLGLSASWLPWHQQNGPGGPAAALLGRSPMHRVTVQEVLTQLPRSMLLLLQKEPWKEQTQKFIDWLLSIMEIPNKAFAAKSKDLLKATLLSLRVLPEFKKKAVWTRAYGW

T1: 3xFLAG-Avi-tagged AVEN (mouse (endogenous in mESCs)) (UniProt Q9D9K3)
T1 sequence (chain, biotin on the AviTag (BirA ligase expressed in the cells)): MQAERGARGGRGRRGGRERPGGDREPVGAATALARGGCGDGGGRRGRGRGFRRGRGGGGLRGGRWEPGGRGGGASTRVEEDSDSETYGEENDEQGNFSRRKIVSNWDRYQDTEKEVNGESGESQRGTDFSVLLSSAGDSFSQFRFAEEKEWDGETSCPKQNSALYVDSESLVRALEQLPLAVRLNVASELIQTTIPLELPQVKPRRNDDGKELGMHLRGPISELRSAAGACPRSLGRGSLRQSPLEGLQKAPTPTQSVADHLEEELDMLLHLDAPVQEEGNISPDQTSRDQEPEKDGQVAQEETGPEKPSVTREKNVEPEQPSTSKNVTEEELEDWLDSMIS


Assays:
[1] = biological target: T1, 3xFLAG-Avi-tagged AVEN (mouse (endogenous in mESCs)); experiment: affinity purification with mass spectrometry; high-salt tandem FLAG-streptavidin purification of the 3xFLAG-Avi bait from mESC lysate; lysis buffer with 350 mM KCl, RNase treatment; untagged mESCs as control
[2] = biological target: 3xFLAG-Avi-tagged SKIV2L (mouse (endogenous in mESCs)) (UniProt Q6NZR5); experiment: affinity purification with mass spectrometry; tandem FLAG-streptavidin purification of the 3xFLAG-Avi bait from mESC lysate; 150 mM KCl, benzonase and RNase A; untagged mESCs as control; three technical replicates
[3] = biological target: T1, 3xFLAG-Avi-tagged AVEN (mouse (endogenous in mESCs)); experiment: affinity purification with mass spectrometry; single-step streptavidin pull-down of the biotinylated 3xFLAG-Avi bait from total mESC lysate; 150 mM KCl, 0.5% NP-40, benzonase and RNase A; untagged mESCs as control; three technical replicates
[4] = biological target: T1, 3xFLAG-Avi-tagged AVEN (mouse (endogenous in mESCs)); experiment: condition: only higher salt concentration (350 mM KCl); affinity purification with mass spectrometry; high-salt tandem FLAG-streptavidin purification of the 3xFLAG-Avi bait from mESC lysate; lysis buffer with 350 mM KCl, RNase treatment; untagged mESCs as control

Molecule | binding [1] | binding [2] | binding [3] | binding [4]
FOCAD (from UniProt A2AKG8 1-1798) | binds | binds | binds | 
TTC37 (mouse (endogenous in mESCs)) |  |  | binds | no binding
SKIV2L (from UniProt Q6NZR5 1-1244) (enzyme) |  |  | binds | no binding
AVEN (protein, UniProt Q9D9K3 1-342) MQAERGARGGRGRRGGRERPGGDREPVGAATALARGGCGDGGGRRGRGRGFRRGRGGGGLRGGRWEPGGRGGGASTRVEEDSDSETYGEENDEQGNFSRRKIVSNWDRYQDTEKEVNGESGESQRGTDFSVLLSSAGDSFSQFRFAEEKEWDGETSCPKQNSALYVDSESLVRALEQLPLAVRLNVASELIQTTIPLELPQVKPRRNDDGKELGMHLRGPISELRSAAGACPRSLGRGSLRQSPLEGLQKAPTPTQSVADHLEEELDMLLHLDAPVQEEGNISPDQTSRDQEPEKDGQVAQEETGPEKPSVTREKNVEPEQPSTSKNVTEEELEDWLDSMIS |  | binds |  | 
